Tested on: STZ-induced diabetic rats
Experiment: Oral mixed-carbohydrate tolerance test (OMCTT) in STZ-induced diabetic rats (Example 9)
Type: in vivo, rat
Details: group characteristic, mean ± S.E.M. (n = 5)
Procedure: Study in diabetic rats with mixed carbohydrates. Diabetic rats, induced by intravenous injection of streptozotocin (STZ; 40 mg/kg), were used to determining plasma glucose concentration (PG) 1 hr after oral mixed-carbohydrate tolerance test (OMCTT). […] Blood was collected via the caudal artery immediately before dosing and 0.5, 1, 2, and 3 hr after dosing. The glucose concentration measurement in plasma used Glucose CII-Test Wako kit (Wako Pure Chemicals Industries, Ltd., Osaka, Japan). The variables used for efficacy assessment were the measurement values of the plasma glucose concentration and the area under the curve for plasma glucose concentration through 1 hr after loading (ΔAUC0-1 hr). The ΔAUC0-1 hr for plasma glucose was calculated based on the trapezoid method using the change of plasma glucose concentrations from pre-value (0 hr).

| Compound | Body weight (0.03 mg/kg oral) | Body weight (0.1 mg/kg oral) |
| --- | --- | --- |
| Cc1cc(OCCCN)ccc1Cc1c(O[C@@H]2O[C@H](CO)[C@@H](O)[C@H](O)[C@H]2O)n[nH]c1C(C)C [KGA-2586] | 295 ± 7 g | 286 ± 6^ g |
| Cc1cc(OCCCNCC(N)=O)ccc1Cc1c(O[C@@H]2O[C@H](CO)[C@@H](O)[C@H](O)[C@H]2O)n[nH]c1C(C)C [KGA-2588] | 302 ± 8 g | 294 ± 5 g |
| Cc1cc(OCCCNCCC(N)=O)ccc1Cc1c(O[C@@H]2O[C@H](CO)[C@@H](O)[C@H](O)[C@H]2O)n[nH]c1C(C)C [KGA-2727] | 283 ± 5 g | 286 ± 3 g |
| CC(C)c1[nH]nc(O[C@@H]2O[C@H](CO)[C@@H](O)[C@H](O)[C@H]2O)c1Cc1ccc(CCCC(=O)NC(C)(C)C(=O)N2CCNCC2)cc1 [KGA-2891] |  | 300 ± 9 g |
| Cc1cc(OCCCNCC(C)(C)C(N)=O)ccc1Cc1c(O[C@@H]2O[C@H](CO)[C@@H](O)[C@H](O)[C@H]2O)n[nH]c1C(C)C [mizagliflozin, 3-(3-{4-[3-(β-D-glucopyranosyloxy)-5-isopropyl-1H-pyrazol-4-ylmethyl-]-3-methylphenoxy}propylamino)-2,2-dimethylpropionamide] | 298 ± 8 g | 296 ± 8 g |

Source: patent US11596644B2, “Method for treating post-prandial hypoglycemia” (AVOLYNT, priority 2018, dated 2023)
